Source: paper PMC5564613
No constants are given. Whether binding was seen depends on the method and setting. Binding seen in cells or lysates may run through a third protein.

By UniProt entry, the sequences of proteins in these tests, tags left out. Where a name states a change or a piece, a line headed by the entry shows the natural chain unless it says otherwise.
UniProt O43791: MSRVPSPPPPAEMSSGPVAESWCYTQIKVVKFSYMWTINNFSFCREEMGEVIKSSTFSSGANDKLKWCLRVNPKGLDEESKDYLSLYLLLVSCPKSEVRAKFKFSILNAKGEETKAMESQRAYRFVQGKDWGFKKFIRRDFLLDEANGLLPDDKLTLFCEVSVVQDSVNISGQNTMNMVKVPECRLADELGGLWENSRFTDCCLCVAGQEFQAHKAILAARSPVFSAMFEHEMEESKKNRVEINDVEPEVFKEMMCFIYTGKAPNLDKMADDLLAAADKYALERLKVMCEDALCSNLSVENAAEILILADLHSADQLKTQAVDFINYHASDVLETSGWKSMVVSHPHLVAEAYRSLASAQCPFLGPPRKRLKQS
UniProt Q9UBN7: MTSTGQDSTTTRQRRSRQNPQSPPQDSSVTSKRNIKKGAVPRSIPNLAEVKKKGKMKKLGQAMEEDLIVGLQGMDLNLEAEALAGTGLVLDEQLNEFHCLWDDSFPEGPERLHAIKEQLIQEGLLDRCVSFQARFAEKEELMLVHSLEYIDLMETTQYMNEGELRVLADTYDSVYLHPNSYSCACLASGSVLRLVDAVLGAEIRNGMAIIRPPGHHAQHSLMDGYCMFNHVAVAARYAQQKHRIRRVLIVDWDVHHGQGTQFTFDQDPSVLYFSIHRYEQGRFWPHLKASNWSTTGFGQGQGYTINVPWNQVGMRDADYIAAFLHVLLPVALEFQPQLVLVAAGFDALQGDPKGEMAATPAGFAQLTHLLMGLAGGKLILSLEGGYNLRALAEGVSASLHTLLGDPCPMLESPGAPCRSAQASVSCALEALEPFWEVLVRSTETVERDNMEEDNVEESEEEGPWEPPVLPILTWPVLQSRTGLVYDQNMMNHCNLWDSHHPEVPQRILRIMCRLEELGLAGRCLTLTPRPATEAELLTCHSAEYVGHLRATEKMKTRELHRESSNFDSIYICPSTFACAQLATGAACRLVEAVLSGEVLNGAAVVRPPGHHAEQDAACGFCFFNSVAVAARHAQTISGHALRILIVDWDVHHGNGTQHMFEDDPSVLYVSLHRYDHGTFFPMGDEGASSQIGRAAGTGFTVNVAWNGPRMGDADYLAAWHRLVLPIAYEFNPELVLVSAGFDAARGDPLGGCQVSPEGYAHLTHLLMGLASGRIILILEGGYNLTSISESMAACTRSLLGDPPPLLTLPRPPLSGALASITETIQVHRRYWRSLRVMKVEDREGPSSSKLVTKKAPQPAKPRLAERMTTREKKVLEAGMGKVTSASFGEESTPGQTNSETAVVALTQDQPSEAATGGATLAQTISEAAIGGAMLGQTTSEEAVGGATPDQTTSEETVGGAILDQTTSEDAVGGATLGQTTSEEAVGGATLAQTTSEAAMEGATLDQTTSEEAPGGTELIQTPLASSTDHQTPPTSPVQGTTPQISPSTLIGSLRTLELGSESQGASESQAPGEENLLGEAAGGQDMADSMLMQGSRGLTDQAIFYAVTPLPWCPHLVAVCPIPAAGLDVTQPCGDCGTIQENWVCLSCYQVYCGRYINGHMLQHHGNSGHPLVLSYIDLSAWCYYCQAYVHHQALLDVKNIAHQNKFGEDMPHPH

Target: GST-SPOP (pGEX-4T-1-SPOP) (human) (UniProt O43791)
Assay: pull-down; GST pull-down from lysates of 293T cells transfected with HDAC6 constructs, treated with 10 μM MG132 for 12 hours; by the methods 1 mg lysate with 1 μg bacterial purified GST fused protein for 4 hours in the cold room, washed with NETN buffer; immunoblot; only the target purified

## HDAC6 with deletion of degron 2 (ΔD2) (from UniProt Q9UBN7)
  binding: no binding
